One series addresses T1, FLAG-ZRANB3 (UniProt Q5FWF4).
T1 sequence (looked up, limits assumed): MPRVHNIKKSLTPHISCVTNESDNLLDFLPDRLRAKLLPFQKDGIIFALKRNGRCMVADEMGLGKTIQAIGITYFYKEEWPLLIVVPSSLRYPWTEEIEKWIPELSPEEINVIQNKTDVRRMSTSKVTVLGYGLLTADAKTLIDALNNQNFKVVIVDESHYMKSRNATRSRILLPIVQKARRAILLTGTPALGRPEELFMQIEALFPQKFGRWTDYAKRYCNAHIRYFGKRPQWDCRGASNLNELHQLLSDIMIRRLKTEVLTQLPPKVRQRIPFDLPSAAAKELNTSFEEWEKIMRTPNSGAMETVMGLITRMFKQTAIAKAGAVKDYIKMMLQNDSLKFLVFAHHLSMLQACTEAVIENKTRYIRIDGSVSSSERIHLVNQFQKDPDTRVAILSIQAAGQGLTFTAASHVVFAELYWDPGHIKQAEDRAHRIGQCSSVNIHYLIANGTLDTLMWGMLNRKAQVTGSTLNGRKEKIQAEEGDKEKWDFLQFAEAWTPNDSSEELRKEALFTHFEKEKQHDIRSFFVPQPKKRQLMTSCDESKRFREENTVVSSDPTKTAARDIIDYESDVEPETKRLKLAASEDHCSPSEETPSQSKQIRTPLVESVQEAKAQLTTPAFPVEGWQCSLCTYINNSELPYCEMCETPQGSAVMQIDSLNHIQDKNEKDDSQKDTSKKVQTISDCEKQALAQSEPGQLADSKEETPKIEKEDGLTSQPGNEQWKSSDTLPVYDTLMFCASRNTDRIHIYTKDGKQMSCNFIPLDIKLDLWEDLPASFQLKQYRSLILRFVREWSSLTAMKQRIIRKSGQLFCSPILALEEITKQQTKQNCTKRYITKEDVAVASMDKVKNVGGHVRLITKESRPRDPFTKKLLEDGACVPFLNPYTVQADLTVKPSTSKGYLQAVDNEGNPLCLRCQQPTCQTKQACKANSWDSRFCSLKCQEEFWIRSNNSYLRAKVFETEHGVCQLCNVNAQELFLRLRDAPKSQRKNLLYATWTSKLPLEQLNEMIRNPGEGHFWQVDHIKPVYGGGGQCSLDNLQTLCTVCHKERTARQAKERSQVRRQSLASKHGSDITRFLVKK
Put plainly: EMSA. To be noted: 0-100 nM protein, 1 nM DNA. A general note: Mobility shift assays separate free from complexed probe on a gel.

The target of another series is T2, FLAG-SMARCAL1 (UniProt Q9NZC9).
T2 sequence (looked up, limits assumed): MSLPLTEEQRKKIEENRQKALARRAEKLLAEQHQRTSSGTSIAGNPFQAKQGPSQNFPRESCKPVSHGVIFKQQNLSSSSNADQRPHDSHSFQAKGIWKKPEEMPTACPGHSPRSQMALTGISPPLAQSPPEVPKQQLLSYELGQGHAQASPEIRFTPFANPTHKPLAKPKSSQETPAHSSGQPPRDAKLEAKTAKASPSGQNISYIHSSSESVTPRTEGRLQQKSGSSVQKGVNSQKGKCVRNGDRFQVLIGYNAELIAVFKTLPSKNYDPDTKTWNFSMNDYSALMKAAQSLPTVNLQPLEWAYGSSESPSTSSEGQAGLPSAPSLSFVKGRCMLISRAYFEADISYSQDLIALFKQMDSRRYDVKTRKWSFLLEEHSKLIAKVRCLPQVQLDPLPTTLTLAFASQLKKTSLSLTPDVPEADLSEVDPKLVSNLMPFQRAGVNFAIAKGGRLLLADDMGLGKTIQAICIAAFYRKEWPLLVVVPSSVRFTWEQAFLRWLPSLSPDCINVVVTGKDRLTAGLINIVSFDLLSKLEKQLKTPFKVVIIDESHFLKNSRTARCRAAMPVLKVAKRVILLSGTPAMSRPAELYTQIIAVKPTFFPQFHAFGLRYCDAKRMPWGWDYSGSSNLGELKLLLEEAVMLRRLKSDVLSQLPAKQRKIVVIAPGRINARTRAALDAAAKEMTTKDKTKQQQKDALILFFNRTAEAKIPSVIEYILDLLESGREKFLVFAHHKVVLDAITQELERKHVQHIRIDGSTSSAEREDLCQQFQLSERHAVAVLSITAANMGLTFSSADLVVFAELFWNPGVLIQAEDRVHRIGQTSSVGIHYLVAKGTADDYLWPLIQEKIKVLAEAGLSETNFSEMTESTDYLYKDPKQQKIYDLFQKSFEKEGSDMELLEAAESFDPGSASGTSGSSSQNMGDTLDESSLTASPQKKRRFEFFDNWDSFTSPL
Put plainly: EMSA. To be noted: 0-100 nM protein, 1 nM DNA.

For at least one entry, the source does not settle the construct or the ends of the probe. At least one verdict rests on a figure or table, not on a statement of the authors. Tags and fusion partners may be left off the protein sequences shown.

The values that follow come from article doi:10.1101/2024.09.17.613558.

For “CGTGACTTGATGTTAACCCTAACCCTAAGATATCGCGTTATCAGAGTGTGAGGATACATGTAGGCAATTGCCACGTGTCTATCAGCTGAAGTTGTTCGCGACGTGCGATCGTCGCTGCGACG / CGTCGCAGCGACGATCGCACGTCGCGAACAACTTCAGCTGATAGACACGTGGCAATTGCCTACATGTATCCTCACACTCTGAATACGCGATATCTTAGGGTTAGGGTTAACATCAAGTCACG / TCAGAGTGTGAGGATACATGTAGGCAATTGCCACGTGTCTATCAGCTGAAGTTGTTCGCGACGTGCGATCGTCGCTGCGACG [fork, leading ssDNA arm, no lesion (Lead 122/Lag 122/Lag 82)]”, the binding result in the series with FLAG-ZRANB3 and with FLAG-SMARCAL1 was “binds” in each case.
With “GCACCCTAAGATATCGCGTTGTCAGAGTGTGAGGATACATGTGGGCAATTGCCACGTGTCCG / CGGACACGTGGCAATTGCCTACATGTATCCTCACACTCTGATAACGCGATATCTTAGGGTGC / CGGACACGTGGCAATTGCCCACATGTATCCTCACACTCTGAC / ATCAGAGTGTGAGGATACATGTAGGCAATTGCCACGTGTCCG [fork, no biotin (Lag N42/Lag P62/Lead N42/Lead P62)]”, the binding result with FLAG-ZRANB3 and in the series with FLAG-SMARCAL1 was “binds” each time.
